Measurements taken from PubChem BioAssay AID1347075 (National Center for Advancing Translational Sciences (NCATS), 2019).
In all, about 400,000 compounds went through this assay and about 5,500 (1.4%) were called active. The shares of active, inactive and inconclusive entries below differ from those in the screen. Calls come from the whole dose curve; as a rule, active = well fitted cell-killing curve with a large enough effect; inconclusive = small, poorly fitted or top-dose-only effect, or effect the other way; inactive = flat fitted curve, though single readings scatter. Where the call is inconclusive, the potency comes from a doubtful curve fit.

Assay: qHTS assay for MDR1-selective chemotherapeutics: Primary screen using the parental adenocarcinoma cell KB-3-1; note: nearly all actives have a fitted effect of over 60% in size
Conditions: KB-3-1 viability, CellTiter-Glo ATP luminescence, 72 h; activity change, negative = cytotoxic: at 46.1 µM (top of the series)
In short: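 72 h, 37 °C compound treatment of KB-3-1 parental cells; CellTiter-Glo added, 10 min, luminescence read. Data corrected against DMSO-only plates and normalized before curve fitting.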
% is set by controls: 0 for no effect and ±100 for the full control effect; potency is the fitted concentration of half-maximal effect.

**Q.** For `CCCCCc1cc(O)c2c(C)cc(=O)oc2c1`, which Potency is on record?
**A.** inconclusive: 29.1 µM [cytotoxic, single point]

**Q.** With `Cc1nc2ccccn2c1/C(O)=C1\C(=O)C(=O)N(CCN2CCOCC2)C1c1cccnc1` (configuration not stated) as the compound, how does the activity change, negative = cytotoxic read?
**A.** inconclusive: 11.2%

**Q.** For `CCOC(=O)c1c(C)n(C)c2ccc(OCC(O)Cn3nc(C)c(Br)c3C)cc12` (configuration not stated), which Potency is on record?
**A.** inconclusive: 25.9 µM [cytotoxic, single point]

**Q.** For `COc1ccccc1CCNC(=O)C(=O)NCC(c1cccnc1)N1CCN(c2ccccc2)CC1` (configuration not stated), which Potency is on record?
**A.** inconclusive: 9.2 µM [cytotoxic, partial curve, poor fit]

**Q.** For `Cc1cc(NC(=O)c2c(F)cccc2F)n(-c2nc3ccccc3[nH]2)n1`, which Potency is on record?
**A.** inconclusive: 29.1 µM [cytotoxic, single point]

**Q.** With `O=C(c1cccc(Cl)c1)N1CCC(=O)N(C(COCc2cccc(Cl)c2)Cc2ccccc2)CC1` (configuration not stated) as the compound, how does the Potency read?
**A.** inconclusive: 16.4 µM [cytotoxic, single point]

**Q.** With `O=C(NCc1ccccc1)[C@@H]1CCCN1C(=O)[C@@H]1CCCN1C(=O)c1cccc2ccccc12` as the compound, how does the Potency read?
**A.** inconclusive: 0.184 µM [rising, full curve]

**Q.** For `CN(C)CCCN(C(=O)CCc1ccccc1)c1nc2ccc(Br)cc2s1`, which Potency is on record?
**A.** inconclusive: 16.4 µM [cytotoxic, single point]

**Q.** With `CCOc1ccccc1CNC(=O)c1cc2occc2n1C` as the compound, how does the “activity change, negative = cytotoxic” value read?
**A.** inactive: 2.93%

**Q.** With `O=C(Nc1cccc(-c2cn3cccnc3n2)c1)c1ccco1` as the compound, how does the Potency read?
**A.** inconclusive: 29.1 µM [rising, single point]

**Q.** Which Potency does the source give for `COc1cccc(N=Cc2c(O)n(-c3cccc(C)n3)c(=O)c3ccccc23)c1` here?
**A.** inconclusive: 16.4 µM [rising, partial curve]

**Q.** With `COC(=O)c1ccc2nc(-c3ccc(F)cc3)c(CC3CCCCC3)n2c1` as the compound, how does the “activity change, negative = cytotoxic” value read?
**A.** inactive: -6.63%

**Q.** With `CC/C(=N\NC(=O)c1ccc(Br)cc1)c1ccccc1` as the compound, how does the Potency read?
**A.** inconclusive: 20.6 µM [rising, single point]

**Q.** For `NC(=O)NN=C1CCN2CCCc3cccc1c32`, which Potency is on record?
**A.** inconclusive: 29.1 µM [cytotoxic, single point]

**Q.** With `CCC(=O)N1CCN(c2ccc(NC(=O)c3ccc([N+](=O)[O-])o3)cc2)CC1` as the compound, how does the Potency read?
**A.** inconclusive: 3.66 µM [cytotoxic, partial curve, poor fit]

**Q.** Which “activity change, negative = cytotoxic” value does the source give for `Cc1cc(C)n(-c2ccccc2C#N)n1` here?
**A.** inactive: 14.1%

**Q.** Which “activity change, negative = cytotoxic” value does the source give for `CCCN1C(=O)c2oc3cc(C)cc(C)c3c(=O)c2C1c1ccc(F)cc1` (configuration not stated) here?
**A.** inactive: -3.25%

**Q.** Which “activity change, negative = cytotoxic” value does the source give for `Cc1ccc(S(=O)(=O)c2c(COC(=O)c3ccccc3Cl)c(-c3ccccc3)nn2C)cc1` here?
**A.** inactive: -4.42%

**Q.** With `O=S(=O)(c1ccc2c(c1)OCCO2)N1CCC(c2nc3ccccc3[nH]2)CC1` as the compound, how does the Potency read?
**A.** inconclusive: 20.6 µM [cytotoxic, single point]

**Q.** For `CCOc1ccccc1OCC(=O)Nc1nnc(COC)s1`, which “activity change, negative = cytotoxic” value is on record?
**A.** inactive: 3.6%

**Q.** For `COC(=O)C1CCN(S(=O)(=O)CCNC(=O)c2ccc(F)cc2)CC1`, which “activity change, negative = cytotoxic” value is on record?
**A.** inactive: 4.66%

**Q.** With `O=C(Cn1cc(C(F)(F)F)ccc1=O)N/N=C/c1ccc(Cl)cc1Cl` as the compound, how does the Potency read?
**A.** inconclusive: 25.9 µM [cytotoxic, single point]

**Q.** For `Cc1cc(OCC(=O)Nc2cccc(-c3nc4ccccc4o3)c2C)cc(C)c1Cl`, which activity change, negative = cytotoxic is on record?
**A.** inconclusive: 55.8%

**Q.** For `Cc1cc(NS(=O)(=O)c2cn(C)c(C)n2)ccc1Br`, which Potency is on record?
**A.** inconclusive: 9.2 µM [rising, partial curve, poor fit]

**Q.** With `O=C(N/N=C/c1ccc([N+](=O)[O-])o1)c1cc2ccccc2o1` as the compound, how does the Potency read?
**A.** inconclusive: 29.1 µM [cytotoxic, single point]

**Q.** Which Potency does the source give for `Cc1nc2ccc(NS(=O)(=O)c3ccc(F)cc3F)cc2s1` here?
**A.** inconclusive: 29.1 µM [cytotoxic, single point]

**Q.** For `O=C(COc1ccc(F)cc1Cl)Nc1cc(S(=O)(=O)N2CCOCC2)ccc1N1CCCCC1`, which Potency is on record?
**A.** inconclusive: 23.1 µM [cytotoxic, single point]

**Q.** Which Potency does the source give for `COc1cc(OC)c(C=CC(=O)c2ccccc2O)c(OC)c1` here?
**A.** inconclusive: 23.1 µM [cytotoxic, partial curve, poor fit]

**Q.** With `Cc1ccc(N2C(=O)N3[C@H](c4ccc(Cl)cc4)[C@@H]4C(=O)N(C5CCCCC5)C(=O)[C@@H]4[C@]3(Cc3ccccc3)C2=O)cc1` as the compound, how does the “activity change, negative = cytotoxic” value read?
**A.** inactive: 0%

**Q.** For `NC(=O)c1ccc(N2CCN(S(=O)(=O)c3cccs3)CC2)c([N+](=O)[O-])c1`, which Potency is on record?
**A.** inconclusive: 14.6 µM [cytotoxic, partial curve, poor fit]

**Q.** Which Potency does the source give for `CC(C)(C)C1=CC(=Nc2ccccc2N)C=C(C(C)(C)C)C1=O` here?
**A.** inconclusive: 29.1 µM [cytotoxic, single point]

**Q.** With `O=C(/C=C/c1ccco1)N1CCN(c2ncccn2)CC1` as the compound, how does the “activity change, negative = cytotoxic” value read?
**A.** inactive: 3.63%

**Q.** Which Potency does the source give for `Cc1cc(C)c2nc(N3CCCC(C(=O)N4CCN(c5ncccn5)CC4)C3)sc2c1` (configuration not stated) here?
**A.** inconclusive: 13 µM [cytotoxic, partial curve]

**Q.** For `O=C(NCc1cccnc1)C1CC(c2cccc(Br)c2)=NO1` (configuration not stated), which Potency is on record?
**A.** inconclusive: 29.1 µM [cytotoxic, partial curve, poor fit]

**Q.** For `O=C(C#Cc1ccccc1)Nc1ccccc1F`, which Potency is on record?
**A.** inconclusive: 8.2 µM [cytotoxic, partial curve, poor fit]

**Q.** With `Cc1ccccc1Cn1nc(C)c(NC(=O)c2cc3nc(-c4ccco4)cc(C(F)(F)F)n3n2)c1C` as the compound, how does the Potency read?
**A.** inconclusive: 29.1 µM [cytotoxic, single point]

**Q.** Which Potency does the source give for `NC1=NC[C@H](Cc2ccc(O)cc2)N1CCC12CC3CC(CC(C3)C1)C2` here?
**A.** inconclusive: 25.9 µM [cytotoxic, single point]

**Q.** Which “activity change, negative = cytotoxic” value does the source give for `O=[N+]([O-])c1cc(S(=O)(=O)/N=C(/c2ccccc2)N2CCOCC2)ccc1Cl` here?
**A.** inactive: -2.22%

**Q.** For `Cc1nc2cc(NCc3nc4ccccc4n3Cc3ccccc3)ccc2n1C`, which “activity change, negative = cytotoxic” value is on record?
**A.** inactive: -28.8%

**Q.** With `O=[N+]([O-])c1ccc(-c2nc(-c3cccs3)c(-c3cccs3)[nH]2)cc1` as the compound, how does the Potency read?
**A.** inconclusive: 18.4 µM [cytotoxic, single point]

**Q.** For `COc1ccc(C/C(N)=N/OC(=O)c2cccc([N+](=O)[O-])c2)cc1`, which “activity change, negative = cytotoxic” value is on record?
**A.** inactive: 0%

**Q.** For `CC#CCN1c2ccccc2[C@]23C[C@@H](C(=O)OC)N(C(=O)NC(C)(C)C)C2=NC(C(=O)OC)=C(C(=O)OC)[C@H]13`, which “activity change, negative = cytotoxic” value is on record?
**A.** inactive: -0.0356%

**Q.** Which “activity change, negative = cytotoxic” value does the source give for `Cc1cc(=O)oc2c(C)c3occc3cc12` here?
**A.** inactive: -4.44%

**Q.** With `O=C(CSc1nnc(NC(=O)c2c(F)cccc2F)s1)NC1CCCC1` as the compound, how does the Potency read?
**A.** inconclusive: 0.116 µM [rising, partial curve, poor fit]

**Q.** Which Potency does the source give for `CCc1ccc2ncc(S(=O)(=O)c3ccc(C)c(C)c3)c(N3CCCC3)c2c1` here?
**A.** active: 18.4 µM

**Q.** For `Cc1c(C(=O)OC(C)C(C)C[N+](C)(C)C)oc2ccccc12` (configuration not stated), which Potency is on record?
**A.** inconclusive: 29.1 µM [cytotoxic, single point]

**Q.** With `COc1ccc(NS(=O)(=O)c2cc(N=Nc3c(O)[nH]c(=O)[nH]c3=O)ccc2Cl)cc1` as the compound, how does the Potency read?
**A.** inconclusive: 29.1 µM [rising, partial curve, poor fit]

**Q.** For `O=C(c1cccs1)N1CCC(c2nc(-c3ccc(S(=O)(=O)N4CCOCC4)cc3)no2)CC1`, which Potency is on record?
**A.** active: 16.4 µM

**Q.** Which Potency does the source give for `O=[N+]([O-])CC(c1ccccc1)c1c[nH]c2ccccc12` (configuration not stated) here?
**A.** active: 16.4 µM

**Q.** For `COc1ccc(/C(C)=N/OCC(=O)N2CC3(C)CC2CC(C)(C)C3)cc1` (configuration not stated), which activity change, negative = cytotoxic is on record?
**A.** inconclusive: 4.69%

**Q.** With `Cc1ccc(S(=O)(=O)Nc2cccc(-c3ccc(N4CCCC4)nn3)c2)c(C)c1` as the compound, how does the Potency read?
**A.** inconclusive: 25.9 µM [cytotoxic, single point]

**Q.** Which activity change, negative = cytotoxic does the source give for `COc1ccc(C2OC(CCc3ccccc3)Cc3[nH]c(=S)[nH]c(=O)c32)cc1` (configuration not stated) here?
**A.** inconclusive: 5.39%

**Q.** For `O=C(Nc1ccc(F)cc1)c1ccc2c(c1)NC(=O)c1ccccc1S2`, which Potency is on record?
**A.** inconclusive: 29.1 µM [cytotoxic, single point]

**Q.** Which Potency does the source give for `Nc1nonc1-c1nc2ccccc2n1CC(=O)Nc1cccc(Cl)c1Cl` here?
**A.** inconclusive: 20.6 µM [cytotoxic, single point]

**Q.** Which Potency does the source give for `CCn1ccnc1CN(C)Cc1cn(-c2cccc(C)c2)nc1-c1cccc(F)c1` here?
**A.** inconclusive: 29.1 µM [cytotoxic, single point]

**Q.** With `CCc1ccc(NS(=O)(=O)c2c(-c3ccccc3)csc2C(=O)OC)cc1` as the compound, how does the Potency read?
**A.** inconclusive: 29.1 µM [cytotoxic, single point]

**Q.** With `O=C(Nc1nnc(S(=O)(=O)N2CCCCCC2)s1)c1ccccc1` as the compound, how does the Potency read?
**A.** inconclusive: 18.4 µM [cytotoxic, partial curve]

**Q.** For `CC1CC(C)CN(C(=S)SCc2nc(N)nc(Nc3ccccc3)n2)C1` (configuration not stated), which Potency is on record?
**A.** inconclusive: 29.1 µM [cytotoxic, single point]

**Q.** Which Potency does the source give for `O=C(C1=C[C@@H](c2ccccc2)C[C@@H](OCc2ccc(CO)cc2)O1)N1CCN(Cc2ccc3c(c2)OCO3)CC1` here?
**A.** active: 10.3 µM

**Q.** Which Potency does the source give for `c1ccc(-c2cn3c4c(sc3n2)CCCC4)cc1` here?
**A.** inconclusive: 29.1 µM [cytotoxic, single point]

**Q.** For `CCCCNc1c(-c2ccc(Sc3ccc(OC)cc3)cc2)nc2cc(C)ccn12`, which Potency is on record?
**A.** inconclusive: 29.1 µM [cytotoxic, single point]

**Q.** Which Potency does the source give for `CS(=O)(=O)Nc1ccccc1C(=O)Nc1cccc(Cl)c1` here?
**A.** inconclusive: 23.1 µM [cytotoxic, single point]

**Q.** With `Cc1ccccc1NC(=O)Cn1cc(S(=O)(=O)N2CCCC2)c(S(=O)(=O)N2CCCC2)c1` as the compound, how does the Potency read?
**A.** inconclusive: 25.9 µM [rising, partial curve, poor fit]

**Q.** With `Cc1ccc(NC(=O)NC2CCN(S(=O)(=O)c3ccc(F)cc3)CC2)cc1` as the compound, how does the “activity change, negative = cytotoxic” value read?
**A.** inactive: 0.113%

**Q.** Which Potency does the source give for `CCOC(=O)CS(=O)(=O)c1nc(-c2ccccc2)cc(C(F)(F)F)n1` here?
**A.** active: 13 µM

**Q.** With `CCOc1ccc(NC(=O)c2nnn(-c3ccc(F)c(Cl)c3)c2C)cc1` as the compound, how does the “activity change, negative = cytotoxic” value read?
**A.** inactive: 1.14%

**Q.** With `COc1ccc(C2=NOC(Cn3nc(C(=O)NCc4cccc(Br)c4)cc3-c3ccccc3)C2)cc1` (configuration not stated) as the compound, how does the “activity change, negative = cytotoxic” value read?
**A.** inactive: 0.321%
